Experimental data reported in the supplement of paper PMC10331698.
± gives the standard deviation of the averaged measurements. Small differences around the control level are noise.

Assays:
Assay in all cases: level (log10 ratio to DMSO vehicle control); higher = higher biomarker level / cell amount than vehicle control
[1] = compound: O=C(O)C(F)(F)OC(F)(F)C(F)(F)OC(F)(F)C(F)(F)C(F)(F)C(F)(F)F [Perfluoro-3,6-dioxadecanoic acid]; settings: 2200 nM; in DMSO
Procedure: (§1)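 BioMAP Diversity Plus panel of 12 human primary cell co-culture systems (3C, 4H, LPS, SAg, BT, BF4T, BE3C, CASM3C, HDF3CGF, KF3CT, MyoF, Mphg). Compounds were added 1 h before stimulation and left for 24 h (MyoF 48 h; BT 72 h for soluble read-outs or 6 d for IgG). Biomarkers were read by ELISA, cytotoxicity by SRB, PBMC viability and proliferation by Alamar Blue. Each well value was divided by the mean of 8 DMSO control wells on the same plate and log10 transformed; duplicate blinded samples were tested at 4 concentrations.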

[2] = compound: FC(F)C(F)(F)COCC1CO1 [((2,2,3,3-Tetrafluoropropoxy)methyl)oxirane]; settings: 2200 nM; in DMSO
Procedure: as §1

[3] = compound: C=CC(=O)OCC(F)(F)C(F)(F)C(F)(F)C(F)(F)COC(=O)C=C [1H,1H,6H,6H-Perfluorohexane-1,6-diol diacrylate]; settings: 2200 nM; in DMSO
Procedure: as §1

Perfluorobutanoic acid = compound: O=C(O)C(F)(F)C(F)(F)C(F)(F)F [Perfluorobutanoic acid]; settings: 2200 nM; in DMSO
Procedure: as §1

Perfluoropropanoic acid = compound: O=C(O)C(F)(F)C(F)(F)F [Perfluoropropanoic acid]; settings: 2200 nM; in DMSO
Procedure: as §1

[4] = compound: O=C(O)C(F)(F)OC(F)(F)C(F)(F)OC(F)(F)C(=O)O [Perfluoro-3,6-dioxaoctane-1,8-dioic acid]; settings: 2200 nM; in DMSO
Procedure: as §1

[5] = compound: OCC(F)(F)C(F)(F)C(F)(F)C(F)(F)C(F)(F)C(F)(F)C(F)(F)C(F)(F)C(F)(F)C(F)(F)C(F)(F)F [11:1 Fluorotelomer alcohol]; settings: in DMSO
Procedure: as §1

[6] = compound: O=C(O)C(F)(F)C(F)(F)OC(F)(F)F [Perfluoro-3-methoxypropanoic acid]; settings: 2200 nM; in DMSO
Procedure: as §1

[7] = compound: FC(F)(F)C(F)(F)C(F)(F)C(F)(F)C(F)(F)C(F)(F)C(F)(F)CCI [1-Iodo-1H,1H,2H,2H-perfluorononane]; settings: in DMSO
Procedure: as §1

Perfluorooctanamide = compound: NC(=O)C(F)(F)C(F)(F)C(F)(F)C(F)(F)C(F)(F)C(F)(F)C(F)(F)F [Perfluorooctanamide]; settings: 2200 nM; in DMSO
Procedure: as §1

[8] = compound: O=C(O)C=CC(F)(C(F)(F)F)C(F)(F)F [3-(Perfluoroisopropyl)-2-propenoic acid]; settings: in DMSO
Procedure: as §1

[9] = compound: O=S(=O)(Cl)C(F)(F)C(F)(F)C(F)(F)C(F)(F)C(F)(F)C(F)(F)C(F)(F)C(F)(F)F [Perfluoro-1-octanesulfonyl chloride]; settings: 2200 nM; in DMSO
Procedure: as §1

[10] = compound: OCCC(F)(F)C(F)(F)C(F)(F)C(F)(F)C(F)(F)C(F)(F)C(F)(F)C(F)(F)F [8:2 Fluorotelomer alcohol]; settings: 2200 nM; in DMSO
Procedure: as §1

[11] = compound: C=C(C)C(=O)OCC(F)(F)C(F)(F)C(F)(F)F [2,2,3,3,4,4,4-Heptafluorobutyl methacrylate]; settings: 2200 nM; in DMSO
Procedure: as §1

Perfluoroundecanoic acid = compound: O=C(O)C(F)(F)C(F)(F)C(F)(F)C(F)(F)C(F)(F)C(F)(F)C(F)(F)C(F)(F)C(F)(F)C(F)(F)F [Perfluoroundecanoic acid]; settings: in DMSO
Procedure: as §1

[12] = compound: O=P(O)(O)CCC(F)(F)C(F)(F)C(F)(F)C(F)(F)C(F)(F)C(F)(F)C(F)(F)C(F)(F)F [((Perfluorooctyl)ethyl)phosphonic acid]; settings: 2200 nM; in DMSO
Procedure: as §1

[13] = compound: O=C(O)C(F)(F)C(F)(F)C(F)(F)C(F)(F)C(F)(F)C(F)(F)C(F)(F)C(F)F [9-H-Perfluorononanoic acid]; settings: 2200 nM; in DMSO
Procedure: as §1

[14] = compound: FC(F)(F)C(F)(F)C(F)(F)C(F)(F)C(F)(F)C(F)(F)C(F)(F)I [1-Iodopentadecafluoroheptane]; settings: in DMSO
Procedure: as §1

Test System	level (log10) [1]	level (log10) [2]	level (log10) [3]	level (log10) (Perfluorobutanoic acid)	level (log10) (Perfluoropropanoic acid)	level (log10) [4]	level (log10) ([5]; 370 nM)	level (log10) ([5]; 1100 nM)	level (log10) ([5]; 3300 nM)	level (log10) ([5]; 10000 nM)	level (log10) [6]	level (log10) ([7]; 740 nM)	level (log10) ([7]; 2200 nM)	level (log10) ([7]; 6700 nM)	level (log10) ([7]; 20000 nM)	level (log10) (Perfluorooctanamide)	level (log10) ([8]; 2200 nM)	level (log10) ([8]; 6700 nM)	level (log10) ([8]; 20000 nM)	level (log10) ([8]; 60000 nM)	level (log10) [9]	level (log10) [10]	level (log10) [11]	level (log10) (Perfluoroundecanoic acid; 740 nM)	level (log10) (Perfluoroundecanoic acid; 2200 nM)	level (log10) [12]	level (log10) [13]	level (log10) ([14]; 740 nM)	level (log10) ([14]; 2200 nM)	level (log10) ([14]; 6700 nM)	level (log10) ([14]; 20000 nM)
BT:sTNF-alpha	0.0525 ± 0.05	0.121 ± 0.047	-0.328 ± 0.02	0.0855 ± 0.12	0.0605 ± 0.0092	-0.0345 ± 0.056	-0.057 ± 0.044	-0.057 ± 0.031	-0.127 ± 0.0064	-0.0825 ± 0.079	0.063 ± 0.21	0.153 ± 0.028	-0.001 ± 0.041	0.018 ± 0.054	0.063 ± 0.12	0.0005 ± 0.046	-0.0155 ± 0.16	-0.0275 ± 0.04	-0.149 ± 0.1	-0.028 ± 0.03	0.0365 ± 0.039	0.0325 ± 0.15	-0.024 ± 0.13	-0.0235 ± 0.015	0.137 ± 0.032	-0.008 ± 0.2	-0.009 ± 0.064	-0.04 ± 0.1	0.049 ± 0.11	-0.051 ± 0.018	0.093 ± 0.17
4H:VEGFR2	0.0075 ± 0.05	0.03 ± 0.04	0.012 ± 0.024	0.002 ± 0.014	0.0145 ± 0.042	-0.0285 ± 0.059	0.006 ± 0.027	-0.027 ± 0.023	-0.0135 ± 0.033	-0.008 ± 0.048	-0.0545 ± 0.029	0.038 ± 0.021	0.0015 ± 0.0064	-0.0015 ± 0.026	0.0225 ± 0.06	0.003 ± 0.027	0.0005 ± 0.022	-0.0145 ± 0.019	0.004 ± 0.05	0.01 ± 0.045	0.008 ± 0.045	0.013 ± 0.033	0.0195 ± 0.067	-0.029 ± 0.03	-0.021 ± 0.014	-0.014 ± 0.014	0.036 ± 0.045	-0.0015 ± 0.023	0.002 ± 0.021	0.0055 ± 0.0092	0.06 ± 0.024
BT:sIL-2	0.0445 ± 0.029	0.074 ± 0.023	-0.181 ± 0.044	-0.017 ± 0.02	-0.0505 ± 0.04	-0.0525 ± 0.015	0.0575 ± 0.013	0.108 ± 0.058	0.0255 ± 0.083	-0.02 ± 0.073	0.007 ± 0.078	-0.0125 ± 0.0035	-0.0185 ± 0.073	0.0055 ± 0.0035	-0.0045 ± 0.019	-0.0565 ± 0.013	0.0125 ± 0.032	0.029 ± 0.058	-0.049 ± 0.12	0.001 ± 0.0085	0.054 ± 0.081	0.0475 ± 0.087	-0.0065 ± 0.067	-0.055 ± 0.028	0 ± 0.03	0.029 ± 0.15	0.0425 ± 0.076	-0.0605 ± 0.035	-0.012 ± 0.0085	-0.113 ± 0.07	-0.017 ± 0.081
HDF3CGF:CD54/ICAM-1	0.001 ± 0.013	0.007 ± 0.0099	-0.0505 ± 0.0092	0.0025 ± 0.019	-0.0115 ± 0.015	-0.0025 ± 0.019	-0.0055 ± 0.00071	0.001 ± 0.0071	-0.0075 ± 0.021	-0.012 ± 0.0014	0.0055 ± 0.005	0.0205 ± 0.015	0.001 ± 0.016	-0.0105 ± 0.016	0.0095 ± 0.0035	-0.0005 ± 0.0064	-0.0145 ± 0.0064	-0.0105 ± 0.005	-0.0055 ± 0.015	-0.024 ± 0.016	0.0425 ± 0.039	0.0315 ± 0.016	-0.01 ± 0.0071	-0.018 ± 0.0042	-0.016 ± 0.018	0.001 ± 0.021	-0.0075 ± 0.013	-0.006 ± 0.021	-0.0075 ± 0.019	-0.0025 ± 0.0078	-0.0075 ± 0.0078
CASM3C:CXCL8/IL-8	0.0065 ± 0.005	0.0095 ± 0.0064	0.0095 ± 0.0078	-0.003 ± 0.016	-0.0045 ± 0.03	0.0365 ± 0.076	-0.0135 ± 0.0078	-0.0025 ± 0.0035	-0.006	-0.007 ± 0.064	0.0315 ± 0.077	0.0055 ± 0.00071	0.004 ± 0.0042	0.004 ± 0.0042	0.004 ± 0.0028	0.0295 ± 0.036	0.0215 ± 0.053	0.008 ± 0.025	0.0025 ± 0.016	0.0225 ± 0.0021	-0.016	-0.0055 ± 0.023	0.0055 ± 0.04	0.019 ± 0.04	0.0075 ± 0.011	0.01 ± 0.018	0.0005 ± 0.0078	0.0055 ± 0.028	-0.002 ± 0.016	-0.0165 ± 0.016	0.001 ± 0.017
KF3CT:CXCL10/IP-10	-0.0095 ± 0.00071	0.0035 ± 0.011	-0.01 ± 0.0085	0.004 ± 0.0085	0.0095 ± 0.013	0.0145 ± 0.021	-0.0005 ± 0.0035	0.003 ± 0.0042	-0.002 ± 0.0057	0.0085 ± 0.0035	0.02 ± 0.028	0.0005 ± 0.00071	-0.0015 ± 0.0078	-0.0065 ± 0.005	-0.0235 ± 0.0092	0.035 ± 0.061	0.007 ± 0.047	0.0105 ± 0.035	0.0075 ± 0.032	0.0125 ± 0.023	-0.0055 ± 0.00071	-0.011 ± 0.02	0.001 ± 0.0071	0.006 ± 0.0014	-0.008 ± 0.0057	0.0145 ± 0.03	-0.0005 ± 0.0064	0.001 ± 0.0028	-0.0025 ± 0.005	-0.005 ± 0.014	-0.0085 ± 0.00071
MyoF:Decorin	0.0065 ± 0.015	0 ± 0.018	-0.0115 ± 0.0021	-0.0235 ± 0.0021	0.0185 ± 0.063	0.009 ± 0.035	0.0125 ± 0.042	0.0065 ± 0.028	0.013 ± 0.021	0.0255 ± 0.0021	0.01 ± 0.04	0.01 ± 0.033	0.0185 ± 0.0078	0.014 ± 0.0042	0.038 ± 0.05	0.009 ± 0.041	0.0065 ± 0.036	-0.0045 ± 0.021	0.004 ± 0.0014	0.0225 ± 0.029	-0.0165 ± 0.0064	-0.0035 ± 0.035	0.0145 ± 0.015	0.0005 ± 0.037	-0.0075 ± 0.053	0.0305 ± 0.052	0.019 ± 0.024	0.0435 ± 0.0035	-0.0055 ± 0.015	0.0365 ± 0.049	0.0215 ± 0.029
